The target in assay [1] is T1, CD33 (Siglec 3) expressed in cells (human, UniProt P20138 18-364).
T1 construct: whole, on cells; In the co-immunoprecipitations it stood in cell lysates; also called SJCRH30-CD33 cells; CD33 on MDS-MDSC
The assay can be described thus: immunofluorescence co-localization (CD33-FITC, anti-DDK-APC) on MDS-MDSC treated with 1 µg rhS100A9 (FIG. 3M).

Chains of the proteins cited; added tags and fusions are not shown. Residues count along the entry.
UniProt P20138, residues 18-364: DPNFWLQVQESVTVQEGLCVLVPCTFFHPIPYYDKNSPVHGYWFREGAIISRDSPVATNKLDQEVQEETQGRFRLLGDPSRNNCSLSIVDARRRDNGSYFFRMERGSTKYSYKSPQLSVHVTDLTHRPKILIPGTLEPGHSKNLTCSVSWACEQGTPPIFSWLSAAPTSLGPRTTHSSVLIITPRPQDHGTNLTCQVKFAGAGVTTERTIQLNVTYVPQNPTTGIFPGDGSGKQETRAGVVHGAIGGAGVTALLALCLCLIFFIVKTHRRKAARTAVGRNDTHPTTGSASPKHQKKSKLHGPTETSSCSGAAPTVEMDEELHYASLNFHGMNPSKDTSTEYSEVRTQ

The target in assay [2] is T1, CD33 (Siglec 3) expressed in cells. The assay can be described thus: immunofluorescence (anti-DDK-APC) of SJCRH30 cells stably transfected with CD33 and incubated with rhS100A9-DDK; vector-transfected cells as control (FIG. 3G).

No constants are given. Whether binding was seen depends on the method and setting. Some entries that bind do so weakly or less than the wild type. Where a sequence is shown, tags or fusion partners need not be part of it.

B1: recombinant human (rh) S100A9 tagged with DDK (ligand)
chain: MTCKMSQLERNIETIINTFHQYSVKLGHPDTLNQGEFKELVRKDLQNFLKKENKNEKVIEHIMEDLDTNADKQLSFEEFIMLMARLTWASHEKMHEGDEGPGHHHKPGLGEGTPDYKDDDDK
For B1, the binding entry in assay [1] and in assay [2] was “binds” throughout.

The values above are taken from patent publication US20230348555A1 (H LEE MOFFITT CANCER CENTER AND RESEARCH INSTITUTE, published 2023).
